Laboratory results taken from PMC10611619 (European Journal of Nuclear Medicine and Molecular Imaging, 2023).

Experiment: general procedure: hybrid (solid and solution phase) peptide synthesis; 2-Chlorotrityl chloride (2-CTC) resin; HOBt/TBTU with DIPEA; HOAt/HATU
Conditions: conjugation step, sequence written open

## HYNIC-L6-CPCR4
Based on L6-CPCR4, head-to-tail ring
  conjugation yield: 3.4%
head-to-tail ring
  difficulty met: formation of trifluoroacetyl-HYNIC as a side product during the last deprotection step limited the yield
